This is a selection; strong and weak results do not stand in their true shares. At the low end of the ranking the order means little.
Legend:
Experiment in all cases: DAPPL (digital affinity profiling via proximity ligation, sequencing)
Details in all cases: 10 mM Tris-HCl pH 7.5, 50 mM NaCl, 1 mM DTT, 4% glycerol, room temperature, 30 min; GST-TFs on glutathione beads, 16-mer random dsDNA library, 0.1% …; high values mean tight binding; double strand, one strand shown; scale: fold enrichment (6-mer frequency, TF over GST control)
[1] = molecular target: T1, ELF3 (UniProt P78545)
T1 sequence: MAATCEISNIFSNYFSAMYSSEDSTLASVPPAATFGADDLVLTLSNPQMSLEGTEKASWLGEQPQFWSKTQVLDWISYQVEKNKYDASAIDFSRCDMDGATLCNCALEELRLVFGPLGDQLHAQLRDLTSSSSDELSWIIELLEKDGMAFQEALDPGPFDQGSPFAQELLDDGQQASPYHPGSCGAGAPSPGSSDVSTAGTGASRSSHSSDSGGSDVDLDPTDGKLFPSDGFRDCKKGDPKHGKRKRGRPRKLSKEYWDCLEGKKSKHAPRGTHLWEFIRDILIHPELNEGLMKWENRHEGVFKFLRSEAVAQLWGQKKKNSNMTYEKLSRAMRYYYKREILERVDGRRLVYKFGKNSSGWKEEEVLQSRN

Sequences of proteins named here, by UniProt entry; tags and fusion partners are left off. A change or cut given only in a name is not applied to a line headed by its entry.
UniProt P41212: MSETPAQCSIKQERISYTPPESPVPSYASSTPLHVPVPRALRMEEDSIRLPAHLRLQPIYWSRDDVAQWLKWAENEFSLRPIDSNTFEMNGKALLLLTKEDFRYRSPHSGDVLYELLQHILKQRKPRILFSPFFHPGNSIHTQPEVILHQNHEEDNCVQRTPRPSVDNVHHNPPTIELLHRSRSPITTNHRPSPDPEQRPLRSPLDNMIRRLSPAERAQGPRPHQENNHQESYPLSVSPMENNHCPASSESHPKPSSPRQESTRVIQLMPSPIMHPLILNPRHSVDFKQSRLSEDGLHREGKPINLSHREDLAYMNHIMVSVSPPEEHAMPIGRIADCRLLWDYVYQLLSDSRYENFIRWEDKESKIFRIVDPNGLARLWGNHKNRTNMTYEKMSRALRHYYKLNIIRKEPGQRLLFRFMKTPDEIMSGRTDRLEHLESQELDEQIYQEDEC
UniProt Q9Y603: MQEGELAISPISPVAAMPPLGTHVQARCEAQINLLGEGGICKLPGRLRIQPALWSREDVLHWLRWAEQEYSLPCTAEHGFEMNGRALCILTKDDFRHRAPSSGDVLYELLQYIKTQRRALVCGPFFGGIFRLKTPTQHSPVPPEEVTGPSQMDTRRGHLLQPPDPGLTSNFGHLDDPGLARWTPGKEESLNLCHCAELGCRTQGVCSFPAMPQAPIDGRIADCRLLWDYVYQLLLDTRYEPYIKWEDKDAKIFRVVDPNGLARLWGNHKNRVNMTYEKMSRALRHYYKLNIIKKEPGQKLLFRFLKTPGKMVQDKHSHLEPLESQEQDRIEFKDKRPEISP

[2] = molecular target: ETV6 (UniProt P41212)
[3] = molecular target: ETV7 (UniProt Q9Y603)

Sequence	binding signal [1]	binding signal [2]	binding signal [3]
TCTGAG	0.884	0.871	–
AATCCT	1.25	1.29	–
ACGCCG	1.15	1.14	–
GCATAC	0.867	0.894	–
TTTAAG	1.28	1.26	–
TCGTTA	0.87	0.946	–
ATCGCA	0.965	0.974	–
GGTAAC	0.947	1.04	–
CAGAAC	0.97	0.91	–
TCATCT	1.37	1.22	–
CTTAAA	1.2	1.26	–
CATAGT	1.07	0.968	–
CAGCGC	0.962	0.978	–
CTCAGT	1.35	1.08	–
GGTATG	0.948	0.887	–
GTCCAA	0.941	0.923	–
ACTGGA	1.1	0.982	–
TTCGAT	1.42	1.14	–
CATGGC	0.923	1	–
TCTGGC	1.03	1.19	–
GCGAAC	0.845	0.917	–
AATCTG	1.47	1.4	–
GTTGCC	0.781	0.968	–
CATGGG	0.994	1.01	–

Sequence	binding signal [1]	binding signal [2]	binding signal [3]
GTGGCC	1.09	1.1	–
CGGCCC	0.89	0.905	–
CGCACG	0.939	1.08	–
GAAAGT	0.888	0.853	–
TCTAGA	0.959	0.971	–
GGCCTG	0.879	0.875	–
ATTGGG	1.22	1.16	–
GTCTTG	0.979	0.912	–
CGAGAA	0.851	0.918	–
ATAACA	1.21	1.26	–
GCTAAC	0.982	0.948	–
TATCAA	0.921	0.989	–
ACCCCA	1.04	1.02	–
ACGACG	1.17	1.2	–
AATTTC	1.75	1.94	–
ACGAAG	0.883	0.932	–
ATAGGG	0.988	0.93	–
CAGCCT	0.953	0.847	–
GCGACA	0.963	1.04	–
GCTAGA	0.984	0.993	–
GTAGCT	1.18	1.06	–
GCAGCC	0.992	0.851	–
CCACGA	1	1.01	–
CGTTGG	0.789	0.86	–

Sequence	binding signal [1]	binding signal [2]	binding signal [3]
CGGCTG	0.921	0.939	–
ACACGG	1.06	1.06	–
CCCCAA	1.24	1.14	–
AGTTGC	0.831	1.03	–
AGTGCT	1.02	1.52	–
AAGCCG	0.935	0.916	–
GAAACA	1.52	1.45	–
TGGTGC	0.907	0.987	–
ATAGAC	0.966	0.943	–
ACCTGT	0.853	0.959	–
CGACGG	0.931	1.03	–
AGTGGC	1.36	1.27	–
GTCACT	1.26	0.972	–
TCCTAG	1.2	1.26	–
CAATAC	1.29	1.22	–
CACCCA	1.14	0.993	–
TGCGGT	0.977	1.03	–
CAGAAA	0.982	0.921	–
AGTTTT	1.01	0.984	–
GCTGTT	1.17	1.03	–
GTCTAT	1.12	1.03	–
AAAGTC	0.961	0.883	–
CGAAAT	0.957	0.98	–
TCGTCT	1.52	1.34	–

Part of the list above in a different format:
Sequence | binding signal [1] | binding signal [2] | binding signal [3]
CATAGT | 1.07 | 0.968 | –
AATCTG | 1.47 | 1.4 | –
ACGACG | 1.17 | 1.2 | –
ACGAAG | 0.883 | 0.932 | –

(list continues)

Sequence	binding signal [1]	binding signal [2]	binding signal [3]
TAACGC	1.17	1.17	–
TAACGT	1.06	0.939	–
TGAAGA	0.953	0.919	–
TAGGCC	0.996	0.907	–
TCTTCG	1.47	1.36	–
TAAGCC	0.976	1.03	–
CAGCAT	1.07	0.939	–
TCCCAG	1.14	0.996	–
GGTGGT	0.847	0.91	–
CTCAGC	1.2	1.2	–
TAGCGT	0.833	0.919	–
AACTAT	1.26	1.33	–
TAAGCA	0.958	0.986	–
AGGCCC	0.833	0.924	–
GATGGG	0.997	0.958	–
TTAGGC	0.989	0.887	–
GCTCCC	1.35	1.25	–
ACACCG	0.987	0.984	–
CCGGGT	1.12	1.21	–
CATTGA	0.843	0.927	–
TAGCAG	0.945	0.995	–
CTATCC	1.31	1.32	–
CGCTGG	0.967	0.972	–
TTTTCT	1.35	1.32	–

Sequence	binding signal [1]	binding signal [2]	binding signal [3]
CATACA	0.984	1.01	–
CTCTTA	1.27	1.39	–
TACTCC	1.11	1.23	–
AAGGCC	0.961	0.915	–
TGATAA	0.792	0.934	–
CCTGTA	1.09	1.18	–
CTGATG	1.65	1.72	–
GTTGTA	1.04	0.983	–
TCGGCT	0.917	0.936	–
ATGCGT	1.07	0.979	–
GCATTT	1.33	1.39	–
TAGGCA	1	0.926	–
AGTGAC	0.929	1.11	–
AACTCT	1.44	1.33	–
ATCGCG	0.856	0.932	–
AACGAT	1.08	1.25	–
AACAGA	0.949	0.941	–
ACAATG	1.17	1.06	–
TCAGCC	–	–	0.886
ATCTGG	–	–	1.14
CAAACG	–	–	0.851
CTCCAA	–	1.28	1.52
ACAATT	–	–	1.21
AGAAGA	–	0.934	1.01

— article PMC7862700
